No constants are given. Whether binding was seen depends on the method and setting. Binding calls can cover weak binding; strength is not graded here.

By UniProt entry, the sequences of proteins in these tests, tags left out. Where a name states a change or a piece, a line headed by the entry shows the natural chain unless it says otherwise.
UniProt Q8NBP7: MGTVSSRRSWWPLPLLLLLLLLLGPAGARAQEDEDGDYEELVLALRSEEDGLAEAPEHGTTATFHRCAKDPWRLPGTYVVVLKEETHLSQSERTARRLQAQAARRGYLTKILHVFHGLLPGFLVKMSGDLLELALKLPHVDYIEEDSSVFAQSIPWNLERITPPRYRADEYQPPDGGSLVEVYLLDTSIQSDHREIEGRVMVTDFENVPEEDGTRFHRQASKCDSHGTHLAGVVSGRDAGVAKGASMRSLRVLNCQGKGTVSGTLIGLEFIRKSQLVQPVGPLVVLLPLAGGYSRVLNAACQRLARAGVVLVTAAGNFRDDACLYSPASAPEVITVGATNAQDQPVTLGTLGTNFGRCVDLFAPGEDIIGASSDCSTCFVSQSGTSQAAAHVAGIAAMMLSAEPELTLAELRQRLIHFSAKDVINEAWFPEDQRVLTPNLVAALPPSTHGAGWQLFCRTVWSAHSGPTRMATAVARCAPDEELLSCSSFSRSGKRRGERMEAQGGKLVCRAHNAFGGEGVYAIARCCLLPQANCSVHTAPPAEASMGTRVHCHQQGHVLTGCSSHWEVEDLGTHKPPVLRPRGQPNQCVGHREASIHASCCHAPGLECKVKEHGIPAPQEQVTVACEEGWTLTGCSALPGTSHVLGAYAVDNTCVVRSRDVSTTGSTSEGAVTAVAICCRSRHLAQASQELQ

B1: SEQ ID NO 314 (peptide)
chain: TAFTSWEEYLDWVGSGVPWNLARL
B2: SEQ ID NO 353 (peptide)
chain: TAFTSWEEYLDWVGSGCLDRSGGCYTREGYLS
B3: SEQ ID NO 351 (peptide)
chain: TAFTSWEEYLDWVGSGSPCRVGYTPC
B4: SEQ ID NO 350 (peptide)
chain: TAFTSWEEYLDWVGSGSETGLGTYYG
B5: SEQ ID NO 339 (peptide)
chain: TAFTSWEEYLDWVGSGCWTYLRGGCSVT
B6: SEQ ID NO 357 (peptide)
chain: TAFTSWEEYLDWVGSGKMTHMKAD
B7: SEQ ID NO 323 (peptide)
chain: TAFTSWEEYLDWVGSGGCVKYRGSVSCQESKT
B8: SEQ ID NO 345 (peptide)
chain: TAFTSWEEYLDWVGSGGDCGYHYMCSMT
B9: SEQ ID NO 310 (peptide)
chain: TAFTSWEEYLDWVGSGPLLWNLQKVH
B10: SEQ ID NO 358 (peptide)
chain: TAFTSWEEYLDWVGSGGCGYRYMCDMINGL
B11: SEQ ID NO 326 (peptide)
chain: TAFTSWEEYLDWVGSGRGGYELNIPR
B12: SEQ ID NO 6 (peptide)
chain: TAFTSWEEYLDWVGSGCWNLKRIGSQGC
B13: SEQ ID NO 336 (peptide)
chain: TAFTSWEEYLDWVGSGSYRGAWSVFGGSTD
B14: SEQ ID NO 334 (peptide)
chain: TAFTSWEEYLDWVGSGCVKVGLSWIGDCNS
B15: SEQ ID NO 315 (peptide)
chain: TAFTSWEEYLDWVGSGVPWNLAKI
B16: SEQ ID NO 344 (peptide)
chain: TAFTSWEEYLDWVGSGGREMRSVIQM
B17: SEQ ID NO 361 (peptide)
chain: TAFTSWEEYLDWVGSGPTSGLTPS
B18: SEQ ID NO 333 (peptide)
chain: TAFTSWEEYLDWVGSGDCNLWGDDGKYRLCF
B19: SEQ ID NO 321 (peptide)
chain: TAFTSWEEYLDWVGSGTRYADRGVMVYSLS
B20: SEQ ID NO 320 (peptide)
chain: TAFTSWEEYLDWVGSGGEYLWNLKRLES
B21: SEQ ID NO 324 (peptide)
chain: TAFTSWEEYLDWVGSGEHQFYSYRGVDVYR
B22: SEQ ID NO 329 (peptide)
chain: TAFTSWEEYLDWVGSGNVRCYRDVPSCS
B23: SEQ ID NO 312 (peptide)
chain: TAFTSWEEYLDWVGSGKLWNLTRISS
B24: SEQ ID NO 341 (peptide)
chain: TAFTSWEEYLDWVGSGQTTYLRVSSS
B25: SEQ ID NO 346 (peptide)
chain: TAFTSWEEYLDWVGSGQELPNHRRLS
B26: SEQ ID NO 327 (peptide)
chain: TAFTSWEEYLDWVGSGACLNHFVSGNMIRC
B27: SEQ ID NO 355 (peptide)
chain: TAFTSWEEYLDWVGSGCYPLCRVG
B28: SEQ ID NO 318 (peptide)
chain: TAFTSWEEYLDWVGSGMPWNLARIER
B29: SEQ ID NO 316 (peptide)
chain: TAFTSWEEYLDWVGSGGHPLWNLSRI
B30: SEQ ID NO 337 (peptide)
chain: TAFTSWEEYLDWVGSGCMEAWQCSLA
B31: SEQ ID NO 306 (peptide)
chain: TAFTSWEEYLDWVGSGKLWNLGRV
B32: SEQ ID NO 348 (peptide)
chain: TAFTSWEEYLDWVGSGVCSDHYIGGKEVRC
B33: SEQ ID NO 325 (peptide)
chain: TAFTSWEEYLDWVGSGKNNYAYLINMPRAPGI
B34: SEQ ID NO 360 (peptide)
chain: TAFTSWEEYLDWVGSGDCLRYRVGSSCS
B35: SEQ ID NO 332 (peptide)
chain: TAFTSWEEYLDWVGSGPHSYWLDRVQ
B36: SEQ ID NO 307 (peptide)
chain: TAFTSWEEYLDWVGSGNCWSSLRGICENLG
B37: SEQ ID NO 359 (peptide)
chain: TAFTSWEEYLDWVGSGGDCYPHCRLV
B38: SEQ ID NO 317 (peptide)
chain: TAFTSWEEYLDWVGSGNELWNINRLRSS
B39: SEQ ID NO 347 (peptide)
chain: TAFTSWEEYLDWVGSGNMCYLRGKMDCNIV
B40: SEQ ID NO 313 (peptide)
chain: TAFTSWEEYLDWVGSGVVLWNHSRIL
B41: SEQ ID NO 363 (peptide)
chain: TAFTSWEEYLDWVGSGQVTSLPQA
B42: SEQ ID NO 343 (peptide)
chain: TAFTSWEEYLDWVGSGRGEVYDKGGVIVHL
B43: SEQ ID NO 364 (peptide)
chain: TAFTSWEEYLDWVGSGCYPLCRVL
B44: SEQ ID NO 311 (peptide)
chain: TAFTSWEEYLDWVGSGSCSWNVERIRGCSV
B45: SEQ ID NO 309 (peptide)
chain: TAFTSWEEYLDWVGSGGPWNLNRV
B46: SEQ ID NO 335 (peptide)
chain: TAFTSWEEYLDWVGSGGVLGVGGMWIA
B47: SEQ ID NO 308 (peptide)
chain: TAFTSWEEYLDWVGSGVLWNHSRI
B48: SEQ ID NO 340 (peptide)
chain: TAFTSWEEYLDWVGSGPRTYLRGLVD
B49: SEQ ID NO 354 (peptide)
chain: TAFTSWEEYLDWVGSGSSTWHFVGGVRV
B50: SEQ ID NO 362 (peptide)
chain: TAFTSWEEYLDWVGSGRCESKGWANTCVSE
B51: SEQ ID NO 352 (peptide)
chain: TAFTSWEEYLDWVGSGNCARLYSHQRDYSQVC
B52: SEQ ID NO 328 (peptide)
chain: TAFTSWEEYLDWVGSGCPFYDWRCSDFS
B53: SEQ ID NO 338 (peptide)
chain: TAFTSWEEYLDWVGSGQCYPWCRL
B54: SEQ ID NO 330 (peptide)
chain: TAFTSWEEYLDWVGSGEDVVCYGRVDYMPLCV
B55: SEQ ID NO 319 (peptide)
chain: TAFTSWEEYLDWVGSGALWNMRRVESVAFR
B56: SEQ ID NO 331 (peptide)
chain: TAFTSWEEYLDWVGSGNPTYWLTRIS
B57: SEQ ID NO 322 (peptide)
chain: TAFTSWEEYLDWVGSGMVYVDRGVRVFT
B58: SEQ ID NO 342 (peptide)
chain: TAFTSWEEYLDWVGSGQISYLRNA
B59: SEQ ID NO 356 (peptide)
chain: TAFTSWEEYLDWVGSGKCDSHYIRGVVACH

The target of the assay is PCSK9Δhelix (human) (UniProt Q8NBP7). Description: phage spot ELISA.
In the case of B1, the binding result is on record as “binds”. Under B2 stands “binds”. Under B3 stands “binds”; under B4, “binds”; under B5, “binds”. Under B6 stands “binds”; under B7, “binds”.

As to B8, the binding entry is “binds”. Under B9 stands “binds”; under B10, “binds”. The result for B11 reads “binds”; that for B12, “binds”. As for B13, the binding result is listed as “binds”. Under B14 stands “binds”; under B15, “binds”. For the molecule B16, the binding entry is “binds”. Under B17 stands “binds”; under B18, “binds”. Under B19 stands “binds”; under B20, “binds”. Under B21 stands “binds”; under B22, “binds”. For B23, the binding result is on record as “binds”.

For the molecule B24, the binding result is on record as “binds”. The result for B25 reads “binds”; that for B26, “binds”.

For the molecule B27, the binding entry was “binds”. Under B28 stands “binds”; under B29, “binds”. Under B30 stands “binds”; under B31, “binds”. The result for B32 reads “binds”; that for B33, “binds”; that for B34, “binds”. As for B35, the binding result is “binds”.

In the case of B36, the binding result was “binds”. Take B37: the binding result is reported as “binds”. Under B38 stands “binds”.

Consider B39, for which the binding result is listed as “binds”. B40: the binding result is “binds”. The result for B41 reads “binds”; that for B42, “binds”.

As to B43, the binding entry was “binds”. Under B44 stands “binds”; under B45, “binds”. Take B46: the binding result was “binds”. The result for B47 reads “binds”; that for B48, “binds”; that for B49, “binds”.

As to B50, the binding result is reported as “binds”. Under B51 stands “binds”; under B52, “binds”; under B53, “binds”. The result for B54 reads “binds”.

In the case of B55, the binding entry is recorded as “binds”. The result for B56 reads “binds”; that for B57, “binds”. Under B58 stands “binds”; under B59, “binds”.

The values are drawn from patent US20190177366A1.
